Binding screen against folded nucleic acids

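Each compound is printed as two spots on a slide made to bind it covalently, so it has no test concentration; the read-out is fluorescence of the bound, labelled oligonucleotide. The data file lists only calls. An earlier report of the laboratory on the PreQ1, TPP and SAM-II riboswitches (doi:10.1038/s41467-019-09493-3) used 1 µM RNA for 2 h and required a mean Z-score above 3 (spot signal-to-noise against the whole library), a score well above that on a control array, and duplicate spots agreeing (coefficient of variation under 100); it then also set aside compounds that hit other targets, which this list keeps. The cut-offs behind this list may differ. A missing hit is not proof of no binding, and a hit is not a measured affinity.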
“hit” means called a hit, “no hit” means screened and not called a hit.
This is an unselected part of the compounds tested.
A target missing from an entry has no call listed here.

Oligonucleotides screened, 5′ to 3′:
TPP: TPP riboswitch RNA three-way junction, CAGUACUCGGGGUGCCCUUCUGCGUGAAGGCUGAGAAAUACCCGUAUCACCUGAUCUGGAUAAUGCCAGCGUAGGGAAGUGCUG. About 24,000 compounds screened, about 160 hits.
SAM-II: SAM-II riboswitch RNA pseudoknot, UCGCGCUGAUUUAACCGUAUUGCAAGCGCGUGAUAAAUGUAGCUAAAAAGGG. About 21,000 compounds screened, about 200 hits.
PreQ1: PreQ1 riboswitch RNA pseudoknot, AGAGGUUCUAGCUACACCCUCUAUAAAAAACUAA. From B. subtilis. About 24,000 compounds screened, about 170 hits.

Calls for Oc1cc(CNCc2cn3ccccc3n2)nc2ccc(F)cc12 are TPP: no hit; SAM-II: no hit; PreQ1: no hit. For CN(Cc1nccn1Cc1ccccc1)C(=O)CC1COCCN1 (centres undefined) the calls were TPP: no hit; SAM-II: no hit; PreQ1: no hit. With Cc1ccc(C2(CN(C)Cc3n[nH]c4c3CCCC4)CCNCC2)nc1 the screen gave TPP: no hit; SAM-II: no hit; PreQ1: no hit. Cc1ccc(NC(=O)N2CCN(C(=O)c3nonc3N)CC2)c(Cl)c1 was scored TPP: no hit; PreQ1: no hit. With Cc1ccccc1NC(CNS(=O)(=O)c1ccccc1)c1ccccc1 (centres undefined) the screen gave TPP: no hit; PreQ1: no hit. With Cc1nn2c(N)ncnc2c1-c1ccccc1 the screen gave TPP: no hit; PreQ1: no hit.

Calls for N#Cc1cnn2c(NC3CCCCCC3)c(-c3cccc(Cl)c3)[nH]c12 are TPP: no hit; PreQ1: no hit. For Cn1ncc2c(Nc3ccccc3Cl)nc(Cl)nc21 the calls were TPP: no hit; SAM-II: no hit; PreQ1: no hit. For CC(C)(O)C#Cc1ccc(-c2nccn2-c2ccccc2CCO)cc1 the calls were TPP: no hit; SAM-II: no hit; PreQ1: no hit. With CCN(CC)CCOc1ccc(C(=C(Cl)c2ccccc2)c2ccccc2)cc1 the screen gave TPP: no hit; SAM-II: no hit; PreQ1: no hit. With OC(Cn1c(Cc2ccccc2)nc2ccccc21)Cn1c2ccc(Cl)cc2c2cc(Cl)ccc21 (centres undefined) the screen gave TPP: no hit; SAM-II: no hit; PreQ1: no hit. Cc1c(Cl)c(C(=O)N2CCN(CCO)[C@@H]3CS(=O)(=O)C[C@@H]32)nn1C was scored TPP: no hit; SAM-II: no hit; PreQ1: no hit.

For Cc1[nH]c2ccccc2c1CCNCc1cccc(F)c1 the calls were TPP: no hit; SAM-II: no hit; PreQ1: no hit. For CC(=O)c1cccc(Nc2cc(C)nc3ccc(C)cc23)c1 the calls were TPP: no hit; SAM-II: no hit; PreQ1: no hit. Nc1ccc(C(=O)OCc2nc3cc4ccccc4cc3[nH]2)cc1 was scored TPP: no hit; SAM-II: no hit; PreQ1: no hit. Cc1ccccc1Nc1nc(C2(C)CC3(CC(COCC(C)C)OC3=O)C(=O)O2)cs1 (centres undefined) was scored TPP: no hit; SAM-II: no hit; PreQ1: no hit. For CC(C)CCNc1nc2c([nH]1)c(=O)n(C)c(=O)n2C the calls were TPP: no hit; SAM-II: no hit; PreQ1: no hit. For CCN(CC)CC(O)CNC1=NS(=O)(=O)c2ccccc21 (centres undefined) the calls were TPP: no hit; PreQ1: no hit.

Cn1c(=O)c2c(-c3cccc(Br)c3)n(CCO)cc2n(C)c1=O was scored TPP: no hit; PreQ1: no hit. For COc1ccc(C(=O)C2=C(O)C(=O)N(CCN3CCNCC3)C2c2cccc(Oc3ccccc3)c2)cc1 (centres undefined) the calls were TPP: no hit; SAM-II: no hit; PreQ1: no hit. For CCC(C(=O)N1CCC2(CCC(=O)N(CCO)C2)CC1)n1cccn1 (centres undefined) the calls were TPP: no hit; SAM-II: no hit; PreQ1: no hit. OCCCc1nc2n(n1)C(c1ccccc1)C=C(c1ccc(Cl)cc1)N2 (centres undefined) was scored TPP: no hit; SAM-II: no hit; PreQ1: no hit. For CC(C)(C(=O)N1CCC(C(O)CCc2ccccc2)CC1)N1CCCC1 (centres undefined) the calls were TPP: no hit; SAM-II: no hit; PreQ1: no hit. For Nc1nc(COc2ccc3c(c2)CCC3)nc(N2CCCCC2)n1 the calls were TPP: no hit; SAM-II: no hit; PreQ1: no hit.

For O=C(O)CCc1cc2n(n1)CCN(C(=O)c1ccc3[nH]c(CO)nc3c1)C2 the calls were TPP: no hit; SAM-II: no hit; PreQ1: no hit. For CN1CCC(N)=C(C#N)C1 the calls were TPP: no hit; SAM-II: no hit; PreQ1: no hit. With CC1CC(C)CN(c2nc(Nc3ccccc3)c3cnn(C)c3n2)C1 (centres undefined) the screen gave TPP: no hit; PreQ1: no hit. Calls for O=C(c1cncc(Cl)c1)N1CCC2(CC1)[C@H](O)C[C@@H]2OCCO are TPP: no hit; SAM-II: no hit; PreQ1: no hit. With Cc1cc(NCc2cc(-c3cccc(F)c3)no2)nc(N)n1 the screen gave TPP: no hit; SAM-II: no hit; PreQ1: no hit. With Oc1cc(CNC2CCCCC2)c(O)cc1CNC1CCCCC1 the screen gave TPP: no hit; SAM-II: no hit; PreQ1: no hit.

Calls for Nc1nc(Cl)nc2c1ncn2[C@@H]1O[C@H](CO)[C@@H](O)[C@H]1F are TPP: no hit; SAM-II: no hit; PreQ1: no hit. With O=C(Nc1cccc(-c2ccccc2)c1)N1CCN(C(=O)Nc2cccc(-c3ccccc3)c2)CC1 the screen gave TPP: no hit; SAM-II: no hit; PreQ1: no hit.

For reference, 4 entries once more:

{"compound": "Oc1cc(CNC2CCCCC2)c(O)cc1CNC1CCCCC1", "TPP": "no hit", "SAM-II": "no hit", "PreQ1": "no hit"}
{"compound": "Oc1cc(CNCc2cn3ccccc3n2)nc2ccc(F)cc12", "TPP": "no hit", "SAM-II": "no hit", "PreQ1": "no hit"}
{"compound": "O=C(c1cncc(Cl)c1)N1CCC2(CC1)[C@H](O)C[C@@H]2OCCO", "TPP": "no hit", "SAM-II": "no hit", "PreQ1": "no hit"}
{"compound": "Cn1ncc2c(Nc3ccccc3Cl)nc(Cl)nc21", "TPP": "no hit", "SAM-II": "no hit", "PreQ1": "no hit"}

Source: the ROBIN nucleic acid binder screens (doi:10.1002/anie.202211358).